{"source": "PubChem BioAssay AID1508597 (Cure First, 2020)", "screen": "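Knock-downs altering ovarian cancer cell survival with or without PARP inhibitor rucaparib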 (primary screen)", "cell system": "human ovarian carcinoma lines grown from tumours: OCI-P5x (papillary serous) and OCI-C5x (clear cell)", "knock-down reagent": "siRNA pool against human genes, 1.25 pmol siRNA per well", "duration": "72 h or 96 h, depending on the cell culture", "challenge": "rucaparib 20 µM (about IC30) or vehicle, present until read-out", "rucaparib or vehicle": "Rucaparib", "cell line": "OCI-P5x (serous)", "measurement": "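Luminescent ATP-based viability assay read 72 or 96 h after transfection, depending on culture, given as normalised percent viability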", "reading the numbers": "viability, normalised: higher = more viable cells remaining", "active means": "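Active when normalised viability falls below 80 percent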", "calls": "active = viability under 80%; inactive = viability 80% or more", "note": "This is an unselected part of the about 2,100 reagents, under one of the conditions tested. 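Calls flag viability under 80% in either arm, not effects specific to rucaparib; the reference for percent is not stated.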 Not stated in the record: the 100% reference."}
{"gene symbol":"G2E3","technical replicate":"1","viability, normalised (%)":47.5,"activity call":"active"}
{"gene symbol":"G2E3","technical replicate":"2","viability, normalised (%)":58.6,"activity call":"active"}
{"gene symbol":"G2E3","technical replicate":"3","viability, normalised (%)":57.9,"activity call":"active"}
{"gene symbol":"PDE4A","technical replicate":"1","viability, normalised (%)":55.6,"activity call":"active"}
{"gene symbol":"PDE4A","technical replicate":"2","viability, normalised (%)":63.3,"activity call":"active"}
{"gene symbol":"PDE4A","technical replicate":"3","viability, normalised (%)":55.5,"activity call":"active"}
{"gene symbol":"ACVR1C","technical replicate":"1","viability, normalised (%)":123,"activity call":"inactive"}
{"gene symbol":"ACVR1C","technical replicate":"2","viability, normalised (%)":123,"activity call":"inactive"}
{"gene symbol":"ACVR1C","technical replicate":"3","viability, normalised (%)":106,"activity call":"inactive"}
{"gene symbol":"SP110","technical replicate":"1","viability, normalised (%)":44.8,"activity call":"active"}
{"gene symbol":"SP110","technical replicate":"2","viability, normalised (%)":42.6,"activity call":"active"}
{"gene symbol":"SP110","technical replicate":"3","viability, normalised (%)":51.1,"activity call":"active"}
{"gene symbol":"USP28","technical replicate":"1","viability, normalised (%)":62.4,"activity call":"active"}
{"gene symbol":"USP28","technical replicate":"2","viability, normalised (%)":94.4,"activity call":"inactive"}
{"gene symbol":"USP28","technical replicate":"3","viability, normalised (%)":78.4,"activity call":"active"}
{"gene symbol":"HLTF","technical replicate":"1","viability, normalised (%)":56.5,"activity call":"active"}
{"gene symbol":"HLTF","technical replicate":"2","viability, normalised (%)":61.5,"activity call":"active"}
{"gene symbol":"HLTF","technical replicate":"3","viability, normalised (%)":56.3,"activity call":"active"}

Entries above whose gene name starts with A or a:
{"gene symbol":"ACVR1C","technical replicate":"1","viability, normalised (%)":123,"activity call":"inactive"}
{"gene symbol":"ACVR1C","technical replicate":"2","viability, normalised (%)":123,"activity call":"inactive"}
{"gene symbol":"ACVR1C","technical replicate":"3","viability, normalised (%)":106,"activity call":"inactive"}

The listing continues.
{"gene symbol":"CLDN17","technical replicate":"1","viability, normalised (%)":58.2,"activity call":"active"}
{"gene symbol":"CLDN17","technical replicate":"2","viability, normalised (%)":68.5,"activity call":"active"}
{"gene symbol":"CLDN17","technical replicate":"3","viability, normalised (%)":59.6,"activity call":"active"}
{"gene symbol":"PLCD3","technical replicate":"1","viability, normalised (%)":74.7,"activity call":"active"}
{"gene symbol":"PLCD3","technical replicate":"2","viability, normalised (%)":67.9,"activity call":"active"}
{"gene symbol":"PLCD3","technical replicate":"3","viability, normalised (%)":76.4,"activity call":"active"}
{"gene symbol":"RABGGTA","technical replicate":"1","viability, normalised (%)":37.8,"activity call":"active"}
{"gene symbol":"RABGGTA","technical replicate":"2","viability, normalised (%)":37,"activity call":"active"}
{"gene symbol":"RABGGTA","technical replicate":"3","viability, normalised (%)":35.6,"activity call":"active"}
{"gene symbol":"NRBP1","technical replicate":"1","viability, normalised (%)":68,"activity call":"active"}
{"gene symbol":"NRBP1","technical replicate":"2","viability, normalised (%)":80.6,"activity call":"inactive"}
{"gene symbol":"NRBP1","technical replicate":"3","viability, normalised (%)":79.3,"activity call":"active"}
{"gene symbol":"HDAC11","technical replicate":"1","viability, normalised (%)":69.2,"activity call":"active"}
{"gene symbol":"HDAC11","technical replicate":"2","viability, normalised (%)":76,"activity call":"active"}
{"gene symbol":"HDAC11","technical replicate":"3","viability, normalised (%)":68.5,"activity call":"active"}
